Results from PubChem BioAssay AID2685 (National Center for Advancing Translational Sciences (NCATS), 2010).
This is one part of the list. These are further read-outs of the screen, such as a control signal, another cell line or another target. No call is given for them. The list favours compounds with an active or inconclusive main result. Potencies come from curve fits of mixed quality, noted in brackets.

Assay: qHTS Assay for Lipid Storage Modulators in Drosophila S3 Cells;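 as to cell number change: cells counted by Cell Tracker Red CMTPX staining in the red channel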
Details: BODIPY lipid droplet fluorescence, 18-24 h; for cell number change: measured here: cell count max response, cells fed with added oleic acid
Outline: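 Drosophila S3 cells loaded with oleic acid (400 uM, as added) and compounds at several concentrations; lipid droplets imaged by 488-nm laser-scanning cytometry, 500–530 nm intensity and object ratio to cell channel. Percent activity normalized to 20 uM Triacsin C.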

[1] = measured here: cell number channel AC50, cells fed with added oleic acid
[2] = measured here: lipid fluorescence (Fed channel) AC50, cells fed with added oleic acid

With `CCCc1nnc(NC(=O)CN2C(=O)c3ccccc3S2(=O)=O)s1` the cell number change was -70.1% and the AC50 [1] was 2.91 µM [falling, full curve].
In the case of `COc1ccc(CCN(C)C(=O)CSc2nccn2C)cc1OC`, the AC50 [2] is reported as 0.184 µM [rising, full curve].
For `Cc1ccc(NC(=S)N(CCCN2CCOCC2)Cc2cccnc2)cc1C`, the cell number change was 10.9% and the AC50 [1] was 6.51 µM [rising, single point].
With `CCOc1ccc(CCNC(=O)c2c(C)nn(-c3ccccc3)c2Cl)cc1OCC` the cell number change was 17.6%, the AC50 [1] was 1.3 µM [rising, partial curve, poor fit] and the AC50 [2] was 2.31 µM [rising, partial curve, poor fit].
For `COc1ccc(-c2csc(N(CCc3ccccc3)C(=O)COc3ccccc3)n2)cc1`, the cell number change was -36%, the AC50 [1] was 0.58 µM [falling, full curve, poor fit] and the AC50 [2] was 25.9 µM [falling, partial curve, poor fit].
For `Cc1ccccc1C(=O)N1CCC(C(=O)NC2CCCCCC2)CC1`, the cell number change was -5.13%.
Compound `COc1ccc(CC(=O)N2CCN=C2SCc2cccc([N+](=O)[O-])c2)cc1` has a cell number change of 10.1%.
In the case of `CCc1cccc2[nH]c3cc([N+](=O)[O-])ccc3c12`, the cell number change is reported as -31.9% and the AC50 [1] is reported as 10.3 µM [falling, single point].
With `C=C(C)CNC(=S)N/N=C/c1ccc([N+](=O)[O-])cc1` the cell number change was 38.5%, the AC50 [1] was 9.2 µM [rising, partial curve, poor fit] and the AC50 [2] was 32.6 µM [rising, partial curve, poor fit].
In the case of `COc1ccc(CC(NC(C)=O)C(=O)NC2CCN(C(=O)C3CC3)CC2)cc1OC` (configuration not stated), the cell number change is reported as 7.48% and the AC50 [2] is reported as 0.146 µM [falling, full curve, poor fit].
With `COc1ccc(C(=O)N/C(=C\c2ccco2)C(=O)NCc2cccnc2)cc1` the cell number change was 9.01% and the AC50 [2] was 4.61 µM [falling, single point].
With `O=C(Cc1ccccc1)Nc1nnc(SCC(=O)NC2CCCC2)s1` the cell number change was -64.6%, the AC50 [1] was 4.61 µM [falling, full curve] and the AC50 [2] was 0.461 µM [falling, full curve].
For `Cc1nc(SCC(=O)NCc2ccco2)c2c(C)c(C)sc2n1`, the AC50 [1] was 0.651 µM [rising, full curve, poor fit] and the AC50 [2] was 2.06 µM [rising, partial curve].
With `Cc1ccc(S(=O)(=O)N2CCC(C(=O)NCC3CCCO3)CC2)cc1` (configuration not stated) the AC50 [2] was 29.1 µM [falling, single point].
With `FC(F)Oc1ccc(NC(=S)NC23CC4CC(CC(C4)C2)C3)cc1` the cell number change was -2.56% and the AC50 [2] was 29.1 µM [falling, single point].
For `CCOc1ccc(/C(CC)=N/NC(=O)C2(C)CC2(Br)Br)cc1` (configuration not stated), the AC50 [2] was 0.731 µM [rising, partial curve].
In the case of `Cc1cc(C)cc(NC(=O)Cn2nnc(C(=O)NCc3cccs3)c2N)c1`, the cell number change is reported as -7.96% and the AC50 [2] is reported as 3.26 µM [rising, full curve].
In the case of `Cc1cc(C2=NNC(=NCc3ccccc3)SC2)c(C)n1-c1c(C)n(C)n(-c2ccccc2)c1=O`, the cell number change is reported as 6.28% and the AC50 [2] is reported as 0.0651 µM [rising, full curve, poor fit].
With `Cc1cccc(OCc2nnc(SCC(=O)c3cccs3)n2C)c1C` the cell number change was 70.4%, the AC50 [1] was 29.1 µM [rising, single point] and the AC50 [2] was 13 µM [rising, partial curve].
Work on `CCOC(=O)/C(=C/C=C1\Sc2cc(OCC)c(OCC)cc2N1CC)C(C)=O` yielded a cell number change of -90.4%.
`O=C(NNC(=S)NCc1ccco1)c1ccccc1Br` gave a cell number change of -0.0802%.
With `CCOC(=O)C1=C(N)N(c2ccc(N3CCCCC3)cc2)C(=O)C1` the cell number change was -0.595%.
For `Cc1noc(C)c1COc1cccc(C(=O)NCCc2c[nH]c3ccccc23)c1`, the cell number change was -29.9% and the AC50 [2] was 29.1 µM [falling, single point].
`O=C(Nc1ccc(F)c(Cl)c1)c1cc(-c2ccco2)on1` showed a cell number change of 9.58%.
With `Cc1ccc(NC(=S)NCCCN2CCOCC2)cc1` the cell number change was 52.3% and the AC50 [1] was 20.6 µM [rising, partial curve].
With `Sc1nnc(-c2ccc(Cl)cc2)n1Cc1ccccc1` the cell number change was 46.2%, the AC50 [1] was 23.1 µM [rising, partial curve, poor fit] and the AC50 [2] was 18.4 µM [rising, partial curve, poor fit].
For `COCC(=O)OCC(=O)N1N=C(c2ccc(Cl)cc2)CC1c1ccco1` (configuration not stated), the cell number change was -13.3% and the AC50 [2] was 4.11 µM [falling, partial curve, poor fit].
In the case of `COc1ccc(Cl)cc1CNCCCSc1ncccn1`, the cell number change is reported as -2.46% and the AC50 [1] is reported as 0.517 µM [rising, single point].
`Cc1c(O)ccc(/C=N/Nc2ncccc2[N+](=O)[O-])c1O` gave a cell number change of 18.6%.
`Cc1ccccc1N=C1c2ccccc2C(=O)C1[N+](=O)[O-]` (configuration not stated) showed a cell number change of -1.44%.
`C=CCNC(=O)C(=O)NCC1CCCN1S(=O)(=O)c1cccs1` (configuration not stated) showed a cell number change of 17.7%.
Work on `O=C(NCC1CCCO1)c1cc2ccccc2nc1Cl` (configuration not stated) yielded a cell number change of -19.3%.
In the case of `C/C(=N\NC(=O)c1cccc(S(=O)(=O)N2CCOCC2)c1)c1ccc(C#N)cc1`, the cell number change is reported as -30.7%, the AC50 [1] is reported as 29.1 µM [falling, single point] and the AC50 [2] is reported as 0.58 µM [falling, single point].
In the case of `O=C1CC[C@H](N2C(=O)c3ccccc3C2=O)C(=O)N1`, the AC50 [2] is reported as 0.411 µM [falling, single point].
With `Cc1oc2cc3oc(=O)c(CCC(=O)NCCCn4ccnc4)c(C)c3cc2c1C` the cell number change was 9.39% and the AC50 [2] was 0.0651 µM [rising, full curve, poor fit].
In the case of `Cc1ccc(OCC(=O)NC2CCS(=O)(=O)C2)c([N+](=O)[O-])n1` (configuration not stated), the cell number change is reported as -18.5% and the AC50 [1] is reported as 0.184 µM [falling, full curve, poor fit].
With `Cc1cc2ccccc2c(=O)n1CC(=O)NCC(=O)N1CCCC(C)C1` (configuration not stated) the cell number change was -31.5%, the AC50 [1] was 0.103 µM [falling, full curve, poor fit] and the AC50 [2] was 0.13 µM [falling, full curve, poor fit].
In the case of `O=c1[nH]c(CSc2ncnc3sccc23)nc2ccccc12`, the cell number change is reported as 9.84% and the AC50 [2] is reported as 1.64 µM [rising, full curve, poor fit].
With `CCCC(C(=O)NCc1ccco1)N(CC1CCCO1)C(=O)CNS(=O)(=O)c1ccc(F)cc1` (configuration not stated) the cell number change was 9.24% and the AC50 [1] was 0.00411 µM [rising, full curve, poor fit].
`CN(Cc1cccc(-n2cccn2)c1)Cc1cn(C)nc1-c1ccccc1F` showed a cell number change of 24.9%.
In the case of `Cc1cc2cccc(C)c2nc1SCC(=O)NC1CCCCC1`, the cell number change is reported as 11.5% and the AC50 [2] is reported as 29.1 µM [falling, single point].
Work on `COc1ccc(N2CCN(C(c3cccs3)c3nnnn3C3CCCC3)CC2)cc1` (configuration not stated) yielded a cell number change of 1.17%.
In the case of `COC(=O)c1sccc1NC(=O)c1ccco1`, the AC50 [2] is reported as 5.8 µM [rising, partial curve].
In the case of `Cc1ccc(C(=O)NC2CCCC(C)C2C)cc1S(=O)(=O)N1CCCCC1` (configuration not stated), the AC50 [1] is reported as 0.13 µM [falling, full curve, poor fit].
With `O=C(Nc1ccccc1Cl)C1C2CCC3C(CCC21)C3(Cl)Cl` (configuration not stated) the cell number change was 26.9%, the AC50 [1] was 3.66 µM [rising, partial curve, poor fit] and the AC50 [2] was 9.2 µM [rising, partial curve].
For `CCCC[C@@H]1CNC(=S)N1CCc1cccc2ccccc12`, the cell number change was 13.9% and the AC50 [2] was 29.1 µM [rising, single point].
In the case of `CCN(CC)S(=O)(=O)c1ccc2[nH]cc(C(=O)NCCc3ccccc3)c(=O)c2c1`, the AC50 [1] is reported as 1.84 µM [rising, partial curve] and the AC50 [2] is reported as 2.59 µM [rising, partial curve].
In the case of `COc1ccc(C2CC(=O)C3=C(C2)Nc2ncnn2C3c2ccccc2C)cc1` (configuration not stated), the cell number change is reported as 35.8%, the AC50 [1] is reported as 7.31 µM [rising, partial curve, poor fit] and the AC50 [2] is reported as 0.00517 µM [falling, full curve, poor fit].
With `CC(=O)CC(=O)Nc1ccn(-c2ccccc2)n1` the cell number change was -8.79% and the AC50 [2] was 16.4 µM [rising, single point].
For `CCOC(=O)C1CCN(C(=O)c2ccc(OCC(=O)Nc3ccc(OCC)cc3)c(OC)c2)CC1`, the cell number change was 19.8%.
For `COc1ccccc1-c1nnc(SCC(=O)Nc2oc(C)c3c(C)n[nH]c(=O)c23)n1C`, the AC50 [1] was 6.51 µM [falling, single point].
With `CCCc1c(C(=O)N/N=C/c2ccccc2OCc2ccc(F)cc2)nnn1-c1nonc1N` the cell number change was 7.25% and the AC50 [2] was 29.1 µM [rising, single point].
For `CC1CCCC(NC(=O)c2cc(S(=O)(=O)N3CCCCC3)ccc2Cl)C1C` (configuration not stated), the cell number change was -15.9%, the AC50 [1] was 6.51 µM [falling, single point] and the AC50 [2] was 6.51 µM [falling, single point].
With `CC(C)(C)c1[nH]nc2c1C(c1ccsc1)C(C#N)=C(N)O2` (configuration not stated) the cell number change was -6.99% and the AC50 [2] was 0.82 µM [falling, full curve, poor fit].
In the case of `O=C(Cc1ccccc1)NCCc1c[nH]c2ccccc12`, the cell number change is reported as 4.72% and the AC50 [1] is reported as 0.0517 µM [rising, full curve, poor fit].
In the case of `O=S(=O)(Cc1ccccc1Cl)c1ncn[nH]1`, the cell number change is reported as -22.6% and the AC50 [2] is reported as 29.1 µM [rising, single point].
With `CCCCn1c(N)c(N2CCOCC2)c(=O)n(CC(=O)NC(C)c2ccccc2)c1=O` (configuration not stated) the cell number change was 26.2% and the AC50 [1] was 0.517 µM [falling, full curve].
`Nn1c(SCC(=O)Nc2ccc3c(c2)OCO3)nnc1C(F)(F)F` showed a cell number change of -3.38%.
For `O=C(NCCN1CCN(C(=O)c2ccc(F)cc2)CC1)c1ccc(F)cc1`, the cell number change was -7.43% and the AC50 [2] was 29.1 µM [rising, single point].
With `Cc1cc(C(=O)N2CCN(Cc3ccccc3)CC2)ccc1[N+](=O)[O-]` the cell number change was -14.4% and the AC50 [2] was 4.11 µM [falling, single point].
With `COc1ccc(C(=O)NC(=S)NNC(=O)c2ccc(O)cc2)cc1[N+](=O)[O-]` the cell number change was 4.2%.
With `CCCCN(C)C(=O)Cn1nc(-c2ccc(Cl)cc2)ccc1=O` the cell number change was -17%.
